Assay results: PubChem BioAssay AID2551 (National Center for Advancing Translational Sciences (NCATS), 2010)
About 17,000 (5.5%) of roughly 310,000 compounds were called active. The inconclusive results got no clear call from the source; some entries with a clear call stand among them for comparison. Calls follow the shape of the dose curve; as a rule, active = well fitted inhibition curve with a large enough effect; inconclusive = small, poorly fitted or top-dose-only effect, or effect the other way; inactive = no such curve, though single readings can be large or run the other way. Potencies beside an inconclusive call are fits to weak or partial responses and may not hold up.

Amino acid sequences for entries named in this document (tags omitted). A change or cut given only in a name is not applied to a line headed by its entry.
UniProt P51450: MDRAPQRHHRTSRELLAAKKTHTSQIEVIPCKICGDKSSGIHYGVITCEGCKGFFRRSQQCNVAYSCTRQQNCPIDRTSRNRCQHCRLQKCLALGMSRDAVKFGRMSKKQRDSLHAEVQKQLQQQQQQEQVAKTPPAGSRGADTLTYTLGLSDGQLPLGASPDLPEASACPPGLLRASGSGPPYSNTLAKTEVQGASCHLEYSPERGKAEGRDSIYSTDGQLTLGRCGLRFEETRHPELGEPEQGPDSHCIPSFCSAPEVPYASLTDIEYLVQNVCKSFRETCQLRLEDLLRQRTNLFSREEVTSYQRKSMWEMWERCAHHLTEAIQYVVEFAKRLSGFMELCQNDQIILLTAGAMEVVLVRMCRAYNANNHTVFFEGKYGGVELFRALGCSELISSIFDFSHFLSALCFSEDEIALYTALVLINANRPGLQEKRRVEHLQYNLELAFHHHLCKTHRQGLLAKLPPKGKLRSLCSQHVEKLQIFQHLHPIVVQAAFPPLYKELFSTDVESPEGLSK

Each compound was assayed against Nuclear receptor ROR-gamma (Mus musculus) (UniProt P51450) (assay: qHTS for inhibitors of ROR gamma transcriptional activity). Settings: Drosophila S2 Gal4-RORgamma UAS-luciferase reporter, 20 h; activity change, negative = inhibition: at 53.6 µM (top of the series).
How it was run: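 Luminescence from a UAS-regulated Photinus luciferase reporter in stably transfected Drosophila Schneider cells is measured; decreased signal marks ROR gamma inhibition. Fusion expression is induced by 700 uM copper sulfate for 20 hr.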
% is scaled to controls: 0 for no effect and ±100 for the full control effect; potency is read from the fitted curve at half-maximal effect.
Also: nearly all actives have a fitted effect of over 60% in size.

Question: With `O=C(N/N=C/c1ccc(O)c2ncccc12)c1cccc(Br)c1` as the compound, how does the Potency read?
Answer: active: 15.8 µM

Question: How did the Potency turn out when `O=C(CCNC(=O)c1ccccc1Cl)Nc1nc(-c2ccc(F)cc2)cs1` was run?
Answer: inconclusive: 2.24 µM [activator, partial curve]

Question: Which Potency does the source give for `CC(=O)C1=C(C)N(Cc2ccccc2)C(=O)N[C@H]1c1cccs1` here?
Answer: inactive

Question: Which Potency does the source give for `CCOC(=O)c1ccc(NC(=O)N2CCCCC2)cc1` here?
Answer: inconclusive: 0.1 µM [activator, full curve, poor fit]

Question: How did the Potency turn out when `CCn1nc(C)cc1-c1nnc(Sc2ncc([N+](=O)[O-])s2)n1C` was run?
Answer: active: 5.01 µM

Question: For `COCCNC(=O)/C(C#N)=C1\N=C(NC(=O)c2cccs2)c2ccccc21`, which Potency is on record?
Answer: inactive

Question: Which Potency does the source give for `O=C(Nc1nc2ccc([N+](=O)[O-])cc2s1)c1ccc(S(=O)(=O)N2CCCc3ccccc32)cc1` here?
Answer: inconclusive: 1.58 µM [activator, partial curve]

Question: Which Potency does the source give for `COc1ccc(S(=O)(=O)NCCc2cn3nc(C)c(C)nc3n2)cc1F` here?
Answer: inactive

Question: With `COc1ccc(Cc2nnc(Nc3ccc(Cl)cc3)[nH]c2=O)cc1` as the compound, how does the Potency read?
Answer: inactive

Question: With `O=c1c2cc(NC(=S)NC3CCCC3)ccc2nc2n1CCCCC2` as the compound, how does the Potency read?
Answer: inconclusive: 35.5 µM [inhibitor, single point]

Question: Which Potency does the source give for `Nc1nnc(SCC(=O)Nc2nccs2)s1` here?
Answer: inactive

Question: Which Potency does the source give for `C/C(=N\NC(=O)c1cccnc1)c1ccc(Br)cc1` here?
Answer: inconclusive: 22.4 µM [inhibitor, single point]

Question: For `CCOc1ccc2c(c1)nc(SCC(=O)c1cccs1)n2C`, which Potency is on record?
Answer: inconclusive: 14.1 µM [inhibitor, single point]

Question: Which Potency does the source give for `Cc1nn(C)c(C)c1S(=O)(=O)N1CCCC(C(=O)N2CCN(c3ccccc3)CC2)C1` (configuration not stated) here?
Answer: inconclusive: 10 µM [activator, single point]

Question: How did the Potency turn out when `CC(=O)c1c(COC(=O)c2cccnc2)nc2ccccc2[n+]1[O-]` was run?
Answer: inactive

Question: Which Potency does the source give for `O=C(NC1CCSc2ccccc21)c1ccc(Cl)c(S(=O)(=O)N2CCOCC2)c1` (configuration not stated) here?
Answer: inactive

Question: For `O=C(CSC(=S)N1CCN(c2ccccc2)CC1)Nc1nc(-c2ccccc2)c(-c2ccccc2)o1`, which Potency is on record?
Answer: active: 10 µM

Question: For `NC(=O)c1ccccc1NC(=O)CN1CCN(Cc2ccc(Cl)cc2Cl)CC1`, which Potency is on record?
Answer: inconclusive: 12.6 µM [activator, single point]

Question: How did the Potency turn out when `FC(F)Oc1ccc(/C=N/n2c(Cc3ccc(Br)cc3)n[nH]c2=S)cc1` was run?
Answer: active: 8.91 µM

Question: With `Cc1occc1C(=O)N/N=C/c1ccc(Br)s1` as the compound, how does the Potency read?
Answer: active: 6.31 µM

Question: With `COc1ccc(CSC2=CS(=O)(=O)c3ccccc3N2)cc1` as the compound, how does the Potency read?
Answer: inactive

Question: With `C=CCOc1ccc(C2C(C#N)=C(N)N(Nc3ccccc3)C3=C2C(=O)CCC3)cc1OC` (configuration not stated) as the compound, how does the Potency read?
Answer: inconclusive: 17.8 µM [activator, single point]

Question: For `COc1cccc(NC(=O)C(Sc2nnc(-c3ccncc3)n2-c2ccc(Cl)cc2)c2ccccc2)c1` (configuration not stated), which Potency is on record?
Answer: inconclusive: 25.1 µM [activator, single point]

Question: For `COc1ccccc1NNC(=O)c1cc(C(C)(C)C)nn1Cc1ccccc1`, which Potency is on record?
Answer: inconclusive: 35.5 µM [activator, single point]

Question: For `Cc1cc2ncn(C3CC(=O)N(Cc4ccc(N5CCCC5=O)cc4)C3=O)c2cc1C` (configuration not stated), which Potency is on record?
Answer: inconclusive: 22.4 µM [activator, single point]

Question: Which Potency does the source give for `COc1ccc(C(=O)C2CCCN(Cc3cccn3-c3ccccn3)C2)cc1F` (configuration not stated) here?
Answer: inconclusive: 12.6 µM [inhibitor, single point]

Question: For `O=C(NCCCN1CCOCC1)C1CC(=O)N(C2CCCCC2)C1` (configuration not stated), which Potency is on record?
Answer: inconclusive: 3.16 µM [inhibitor, single point]

Question: For `S=C(c1ccc(OCc2ccccc2)cc1)N1CCCC1`, which Potency is on record?
Answer: inconclusive: 35.5 µM [inhibitor, single point]

Question: With `Cc1ccc(C(=O)/C=C2\NCCNC2=O)cc1` as the compound, how does the Potency read?
Answer: inconclusive: 31.6 µM [activator, single point]

Question: `CC(=O)/C(C#N)=C1\NC(=O)C(Cc2ccc(C)c(Cl)c2)S1` (configuration not stated) was tested. Which Potency did it give?
Answer: inactive

Question: How did the Potency turn out when `COc1ccc(OCc2ccc(/C=N\NC(=O)c3sccc3C)o2)cc1` was run?
Answer: active: 11.2 µM

Question: How did the Potency turn out when `Cc1ccccc1OCCCC(=O)NC1CCCCC1` was run?
Answer: inconclusive: 12.6 µM [activator, single point]

Question: `O=C1Nc2ccc(Cl)cc2/C1=C/C1CC=CCC1` (configuration not stated) was tested. Which Potency did it give?
Answer: inconclusive: 22.4 µM [inhibitor, single point]

Question: Which Potency does the source give for `CCN1CCN(c2nc3sc4c(c3c3ncnn23)CC(C)CC4)CC1` (configuration not stated) here?
Answer: inconclusive: 20 µM [inhibitor, single point]

Question: How did the Potency turn out when `Nc1ncnc2c1cnn2C1CCCCC1` was run?
Answer: inactive

Question: `COc1ccc(C(CCN2CCCC(C)C2)c2c(OC)cc(OC)c3c(-c4ccccc4)cc(=O)oc23)cc1` (configuration not stated) was tested. Which Potency did it give?
Answer: inconclusive: 22.4 µM [inhibitor, single point]

Question: For `CC(=O)Oc1cccc(N2C(=O)c3cccc4c([N+](=O)[O-])ccc(c34)C2=O)c1`, which Potency is on record?
Answer: active: 8.91 µM

Question: `COc1ccc(-c2nc(-c3ccc(Br)o3)no2)cc1` was tested. Which Potency did it give?
Answer: inconclusive: 8.91 µM [inhibitor, partial curve, poor fit]

Question: Which Potency does the source give for `C/C(=N\NC(=O)c1c(Cl)c(C)nn1C)c1cccc(NC(=O)c2cccc(F)c2)c1` here?
Answer: inconclusive: 35.5 µM [inhibitor, single point]

Question: How did the Potency turn out when `CCOc1cc(C(=O)NC(=S)Nc2nc(C)cc(C)n2)cc(OCC)c1OCC` was run?
Answer: active: 11.2 µM

Question: Which Potency does the source give for `COc1ccc(CC2(CO)CCN(S(=O)(=O)c3c(C)nn(C)c3Cl)CC2)cc1` here?
Answer: inactive

Question: Which Potency does the source give for `O=C(CSc1nnnn1C1CCCC1)c1ccc2c(c1)OCCO2` here?
Answer: inconclusive: 14.1 µM [inhibitor, single point]

Question: `COc1ccc(C2Nc3cccc4cccc(c34)N2)cc1Br` was tested. Which Potency did it give?
Answer: inconclusive: 35.5 µM [inhibitor, single point]

Question: Which Potency does the source give for `Brc1ccc(OCc2nc(-c3ccccn3)n[nH]2)cc1` here?
Answer: active: 14.1 µM

Question: With `COc1ccc(C(=O)N2CC(=O)Nc3ccc(C)cc3C2c2ccccc2)cc1` (configuration not stated) as the compound, how does the Potency read?
Answer: inconclusive: 2.82 µM [activator, partial curve]

Question: `C/C(CC(=O)Nc1ccc(C)c(Cl)c1)=N\NC(=O)c1ccncc1` was tested. Which Potency did it give?
Answer: inconclusive: 35.5 µM [inhibitor, single point]
